Measured values published in publication PMC6355022.
Results are given in words; binding and its absence hold for the method and conditions named. For some assays here: Binding seen in cells or lysates may run through a third protein. Some entries that bind do so weakly or less than the wild type. For some assays here: Tags and fused reporters may be left off the sequences shown.

Assays:
[1] = target: T1, LBD30-C (amino acids 121-228) fused to the Gal4 DNA-binding domain (Arabidopsis thaliana) (UniProt O81323); test: two-hybrid; directed test: AtSIZ1 in pGADT7 (Gal4 AD) and LBD30 or its derivates in pGBKT7 (Gal4 BD), AH109 yeast cells
T1 sequence: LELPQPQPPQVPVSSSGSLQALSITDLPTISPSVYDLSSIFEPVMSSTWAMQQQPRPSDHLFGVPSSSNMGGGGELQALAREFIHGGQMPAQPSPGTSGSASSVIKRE

[2] = target: T2, LBD30 fused to the Gal4 DNA-binding domain (Arabidopsis thaliana) (UniProt O81323); test: as above
T2 sequence: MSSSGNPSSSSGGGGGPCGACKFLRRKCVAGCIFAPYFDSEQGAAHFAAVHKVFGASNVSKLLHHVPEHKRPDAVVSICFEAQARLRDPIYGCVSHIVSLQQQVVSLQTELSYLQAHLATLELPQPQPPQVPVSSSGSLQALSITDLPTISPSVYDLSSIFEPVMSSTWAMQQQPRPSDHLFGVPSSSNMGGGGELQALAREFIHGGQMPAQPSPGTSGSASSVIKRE

[3] = target: T3, GST-AtSIZ1 fusion protein (Arabidopsis thaliana) (UniProt Q680Q4); test: pull-down; GST or GST-AtSIZ1 from cell lysates immobilised on GST Agarose, washed with 1xPBS, incubated with lysate of E. coli expressing His6-LBD30; immunoblot with anti-His; only the target purified
T3 sequence: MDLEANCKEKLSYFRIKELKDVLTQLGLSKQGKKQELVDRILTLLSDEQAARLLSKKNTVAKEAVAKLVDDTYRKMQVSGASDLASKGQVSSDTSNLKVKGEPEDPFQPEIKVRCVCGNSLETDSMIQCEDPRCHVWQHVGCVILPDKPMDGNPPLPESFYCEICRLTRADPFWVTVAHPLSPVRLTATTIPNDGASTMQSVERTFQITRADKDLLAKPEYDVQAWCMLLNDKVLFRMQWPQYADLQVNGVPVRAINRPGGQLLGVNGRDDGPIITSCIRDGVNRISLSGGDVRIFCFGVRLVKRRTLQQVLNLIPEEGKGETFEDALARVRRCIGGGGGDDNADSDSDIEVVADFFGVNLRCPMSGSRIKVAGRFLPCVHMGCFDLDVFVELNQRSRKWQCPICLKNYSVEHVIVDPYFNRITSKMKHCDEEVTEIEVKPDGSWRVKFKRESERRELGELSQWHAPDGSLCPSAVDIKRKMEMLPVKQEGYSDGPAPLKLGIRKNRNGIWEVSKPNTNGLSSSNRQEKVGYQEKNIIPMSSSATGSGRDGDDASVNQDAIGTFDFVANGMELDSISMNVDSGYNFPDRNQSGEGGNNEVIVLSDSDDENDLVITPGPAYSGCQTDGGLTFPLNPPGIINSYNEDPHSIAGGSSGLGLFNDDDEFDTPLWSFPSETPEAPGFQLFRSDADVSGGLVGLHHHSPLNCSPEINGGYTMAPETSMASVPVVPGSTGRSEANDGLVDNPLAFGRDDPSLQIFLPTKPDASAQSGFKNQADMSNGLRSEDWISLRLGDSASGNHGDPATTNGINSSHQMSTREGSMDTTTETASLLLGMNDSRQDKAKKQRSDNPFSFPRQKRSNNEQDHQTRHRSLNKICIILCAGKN

[4] = target: T4, YN-AtSIZ1 (Arabidopsis thaliana) (UniProt Q680Q4); test: split reporter; BiFC with split YFP in N. benthamiana leaf cells, examined 48 h after infiltration; confocal microscopy, DAPI for nuclei
T4 sequence: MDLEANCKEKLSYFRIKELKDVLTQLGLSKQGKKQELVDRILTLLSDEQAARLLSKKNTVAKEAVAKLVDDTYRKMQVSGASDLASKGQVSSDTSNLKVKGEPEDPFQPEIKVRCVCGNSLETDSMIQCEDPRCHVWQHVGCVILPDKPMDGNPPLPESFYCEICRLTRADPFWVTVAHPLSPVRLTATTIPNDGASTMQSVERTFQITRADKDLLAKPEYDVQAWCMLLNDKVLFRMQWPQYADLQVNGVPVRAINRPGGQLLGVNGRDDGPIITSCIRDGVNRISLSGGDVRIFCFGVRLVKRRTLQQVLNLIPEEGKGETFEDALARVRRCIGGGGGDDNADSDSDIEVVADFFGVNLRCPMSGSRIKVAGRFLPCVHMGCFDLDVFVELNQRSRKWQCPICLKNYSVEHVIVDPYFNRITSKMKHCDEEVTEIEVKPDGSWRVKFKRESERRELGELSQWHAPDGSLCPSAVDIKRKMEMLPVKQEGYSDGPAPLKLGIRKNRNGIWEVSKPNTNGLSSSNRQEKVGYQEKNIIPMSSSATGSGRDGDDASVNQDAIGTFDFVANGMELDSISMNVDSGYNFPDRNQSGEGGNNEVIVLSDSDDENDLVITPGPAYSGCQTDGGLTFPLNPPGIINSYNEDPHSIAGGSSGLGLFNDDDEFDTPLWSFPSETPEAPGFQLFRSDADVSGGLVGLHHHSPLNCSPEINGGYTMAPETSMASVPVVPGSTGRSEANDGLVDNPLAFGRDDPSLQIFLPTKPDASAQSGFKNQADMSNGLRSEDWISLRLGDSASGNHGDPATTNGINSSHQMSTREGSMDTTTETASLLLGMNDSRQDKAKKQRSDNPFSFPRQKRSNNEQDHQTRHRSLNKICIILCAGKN

[5] = target: T5, MYC-AtSIZ1 (Arabidopsis thaliana) (UniProt Q680Q4); test: co-IP; Myc-AtSIZ1 and LBD30-HA co-expressed in tobacco leaves; extract in 50 mM Tris-HCl pH 7.5, 150 mM NaCl, 1 mM EDTA, 0.2% Triton X-100; IP with anti-Myc agarose or anti-HA matrix, 3 h at 4°C; immunoblot with anti-HA or anti-Myc
T5 sequence: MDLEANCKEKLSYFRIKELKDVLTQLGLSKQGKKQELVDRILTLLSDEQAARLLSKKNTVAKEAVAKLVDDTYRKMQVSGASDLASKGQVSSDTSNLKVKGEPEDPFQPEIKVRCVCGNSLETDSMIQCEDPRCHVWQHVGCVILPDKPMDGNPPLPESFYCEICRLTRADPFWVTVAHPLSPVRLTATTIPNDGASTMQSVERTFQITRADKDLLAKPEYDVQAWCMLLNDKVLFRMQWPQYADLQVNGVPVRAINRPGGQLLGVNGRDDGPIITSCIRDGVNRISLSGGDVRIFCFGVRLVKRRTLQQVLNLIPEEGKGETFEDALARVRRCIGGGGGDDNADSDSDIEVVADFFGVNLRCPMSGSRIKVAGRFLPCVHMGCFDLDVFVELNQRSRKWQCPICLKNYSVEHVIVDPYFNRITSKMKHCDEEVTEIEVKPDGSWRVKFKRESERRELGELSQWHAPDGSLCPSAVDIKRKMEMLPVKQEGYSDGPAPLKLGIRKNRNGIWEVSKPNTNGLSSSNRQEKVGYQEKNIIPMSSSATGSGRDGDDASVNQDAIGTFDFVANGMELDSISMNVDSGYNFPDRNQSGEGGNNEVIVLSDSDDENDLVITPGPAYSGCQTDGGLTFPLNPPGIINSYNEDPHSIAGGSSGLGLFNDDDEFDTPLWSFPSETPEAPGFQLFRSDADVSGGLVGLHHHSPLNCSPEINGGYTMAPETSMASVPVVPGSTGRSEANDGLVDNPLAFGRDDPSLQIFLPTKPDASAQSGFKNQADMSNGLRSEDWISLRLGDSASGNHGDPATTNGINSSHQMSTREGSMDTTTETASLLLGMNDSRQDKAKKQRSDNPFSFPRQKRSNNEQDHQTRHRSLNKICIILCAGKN

B1: AtSIZ1 fused to the Gal4 activation domain (enzyme, UniProt Q680Q4 1-884)
chain: MDLEANCKEKLSYFRIKELKDVLTQLGLSKQGKKQELVDRILTLLSDEQAARLLSKKNTVAKEAVAKLVDDTYRKMQVSGASDLASKGQVSSDTSNLKVKGEPEDPFQPEIKVRCVCGNSLETDSMIQCEDPRCHVWQHVGCVILPDKPMDGNPPLPESFYCEICRLTRADPFWVTVAHPLSPVRLTATTIPNDGASTMQSVERTFQITRADKDLLAKPEYDVQAWCMLLNDKVLFRMQWPQYADLQVNGVPVRAINRPGGQLLGVNGRDDGPIITSCIRDGVNRISLSGGDVRIFCFGVRLVKRRTLQQVLNLIPEEGKGETFEDALARVRRCIGGGGGDDNADSDSDIEVVADFFGVNLRCPMSGSRIKVAGRFLPCVHMGCFDLDVFVELNQRSRKWQCPICLKNYSVEHVIVDPYFNRITSKMKHCDEEVTEIEVKPDGSWRVKFKRESERRELGELSQWHAPDGSLCPSAVDIKRKMEMLPVKQEGYSDGPAPLKLGIRKNRNGIWEVSKPNTNGLSSSNRQEKVGYQEKNIIPMSSSATGSGRDGDDASVNQDAIGTFDFVANGMELDSISMNVDSGYNFPDRNQSGEGGNNEVIVLSDSDDENDLVITPGPAYSGCQTDGGLTFPLNPPGIINSYNEDPHSIAGGSSGLGLFNDDDEFDTPLWSFPSETPEAPGFQLFRSDADVSGGLVGLHHHSPLNCSPEINGGYTMAPETSMASVPVVPGSTGRSEANDGLVDNPLAFGRDDPSLQIFLPTKPDASAQSGFKNQADMSNGLRSEDWISLRLGDSASGNHGDPATTNGINSSHQMSTREGSMDTTTETASLLLGMNDSRQDKAKKQRSDNPFSFPRQKRSNNEQDHQTRHRSLNKICIILCAGKN
**Q.** How did the binding [1] turn out when B1 was run?
**A.** binds

**Q.** And the binding [2]?
**A.** binds

B2: His6-LBD30 fusion protein (protein, UniProt O81323 1-228)
chain: MSSSGNPSSSSGGGGGPCGACKFLRRKCVAGCIFAPYFDSEQGAAHFAAVHKVFGASNVSKLLHHVPEHKRPDAVVSICFEAQARLRDPIYGCVSHIVSLQQQVVSLQTELSYLQAHLATLELPQPQPPQVPVSSSGSLQALSITDLPTISPSVYDLSSIFEPVMSSTWAMQQQPRPSDHLFGVPSSSNMGGGGELQALAREFIHGGQMPAQPSPGTSGSASSVIKRE
**Q.** With B2 as the binder, how does the binding [3] read?
**A.** binds

B3: LBD30-YC (protein, UniProt O81323 1-228)
chain: MSSSGNPSSSSGGGGGPCGACKFLRRKCVAGCIFAPYFDSEQGAAHFAAVHKVFGASNVSKLLHHVPEHKRPDAVVSICFEAQARLRDPIYGCVSHIVSLQQQVVSLQTELSYLQAHLATLELPQPQPPQVPVSSSGSLQALSITDLPTISPSVYDLSSIFEPVMSSTWAMQQQPRPSDHLFGVPSSSNMGGGGELQALAREFIHGGQMPAQPSPGTSGSASSVIKRE
**Q.** How did the binding [4] turn out when B3 was run?
**A.** binds

B4: LBD30-HA (protein, UniProt O81323 1-228)
chain: MSSSGNPSSSSGGGGGPCGACKFLRRKCVAGCIFAPYFDSEQGAAHFAAVHKVFGASNVSKLLHHVPEHKRPDAVVSICFEAQARLRDPIYGCVSHIVSLQQQVVSLQTELSYLQAHLATLELPQPQPPQVPVSSSGSLQALSITDLPTISPSVYDLSSIFEPVMSSTWAMQQQPRPSDHLFGVPSSSNMGGGGELQALAREFIHGGQMPAQPSPGTSGSASSVIKRE
**Q.** B4 was tested. Which binding [5] did it give?
**A.** binds
